For this assay, the target named is c-Jun (human (endogenous in T24)) (UniProt P05412). Nature of the assay: co-IP; endogenous proteins in T24 cells; NP-40 lysis buffer (20 mM Tris-HCl pH 7.4, 150 mM NaCl, 1% NP-40), antibody and rProtein A/G Magarose beads overnight at 4 °C; which protein was precipitated not given.

Protein sequences, listed by entry. Tags and fused reporters are not part of them.
UniProt P05412: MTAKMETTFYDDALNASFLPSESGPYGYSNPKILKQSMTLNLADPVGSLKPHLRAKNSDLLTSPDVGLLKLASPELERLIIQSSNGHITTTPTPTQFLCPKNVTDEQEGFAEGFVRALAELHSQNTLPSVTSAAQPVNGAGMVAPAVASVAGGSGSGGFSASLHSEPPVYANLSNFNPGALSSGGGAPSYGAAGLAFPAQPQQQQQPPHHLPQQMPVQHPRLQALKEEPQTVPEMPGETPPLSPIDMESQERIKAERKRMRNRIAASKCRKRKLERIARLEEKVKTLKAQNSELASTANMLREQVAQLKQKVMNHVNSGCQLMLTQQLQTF
UniProt P45974: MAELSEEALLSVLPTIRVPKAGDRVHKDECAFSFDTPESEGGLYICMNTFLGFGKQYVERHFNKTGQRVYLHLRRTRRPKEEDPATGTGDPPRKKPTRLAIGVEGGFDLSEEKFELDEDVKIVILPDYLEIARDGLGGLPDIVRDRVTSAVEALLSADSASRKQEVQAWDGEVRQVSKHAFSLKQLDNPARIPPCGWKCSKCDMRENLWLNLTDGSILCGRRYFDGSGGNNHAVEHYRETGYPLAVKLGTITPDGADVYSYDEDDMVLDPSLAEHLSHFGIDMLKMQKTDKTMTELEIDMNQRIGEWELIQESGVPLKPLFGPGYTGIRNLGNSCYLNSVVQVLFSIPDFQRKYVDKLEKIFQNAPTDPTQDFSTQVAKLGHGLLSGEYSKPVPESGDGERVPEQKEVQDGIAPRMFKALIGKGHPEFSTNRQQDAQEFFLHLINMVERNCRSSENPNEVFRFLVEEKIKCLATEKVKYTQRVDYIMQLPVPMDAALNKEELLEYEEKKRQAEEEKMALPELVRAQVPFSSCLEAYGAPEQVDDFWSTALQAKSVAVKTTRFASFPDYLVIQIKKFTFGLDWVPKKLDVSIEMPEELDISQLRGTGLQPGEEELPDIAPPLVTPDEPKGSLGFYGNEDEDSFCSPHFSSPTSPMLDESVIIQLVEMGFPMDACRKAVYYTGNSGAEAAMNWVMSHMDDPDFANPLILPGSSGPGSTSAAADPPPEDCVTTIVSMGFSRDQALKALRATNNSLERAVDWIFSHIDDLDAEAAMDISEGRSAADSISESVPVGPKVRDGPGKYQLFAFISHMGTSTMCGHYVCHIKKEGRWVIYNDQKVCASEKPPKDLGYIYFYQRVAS

Our source for the binding values is publication PMC10792936.

These are yes or no findings as the source states them, for the method shown. Binding seen in cells or lysates may run through a third protein. Some binding calls cover weakened binding; strength is not graded here.

For the substance “USP5 (from UniProt P45974 1-858) (enzyme)”, the binding entry was “binds”.
